The values below come from PubChem BioAssay AID1347426 (Functional Genomics Laboratory (NCATS/FGL), 2020).

Screen size: about 31,000 sequences; about 1,400 (4.5%) were called active.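 How the source made its calls: active means median seed-adjusted z-score above 1 or below -1; inactive means the rest.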 The list shows a part of the results.

This experiment in a line: Novel Modifiers of Survival Motor Neuron (SMN) Protein: Gene Identification via Genome-wide siRNA Screen.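 Further: luminescence tracks full-length SMN protein made from the SMN2 reporter.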 Particulars: HEK293T SMN2-luciferase reporter, siRNA knockdown, 72 h; actives lie on both sides. The method, boiled down: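 Steps: spot 1 pmol siRNA, add Lipofectamine RNAiMax in serum-free DMEM, seed HEK293T SMN2–luciferase reporter cells; incubate 72 h at 37 °C; add ONE-Glo; normalize luminescence to control siRNA, log10, MAD. Candidates: |MAD| > 1.0.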
As for GGAGGAUUUCUACCCUAAUTT against CYP2U1, the median seed-adjusted z-score is inactive: 0.144.

Consider CAGUGUAAGUUGGACGAAATT against MS4A6E, for which the median seed-adjusted z-score is inactive: -0.341.

Regarding UGAGUAUUUUUACUCCCAUTT against PBX4, the median seed-adjusted z-score was inactive: -0.855.

Consider CGAUCUGUCUCGAUACAAUTT against PPP2R3A, for which the median seed-adjusted z-score is inactive: 0.175.

In the case of GAAAGUUCCCAAUCACUAUTT against CPXM2, the median seed-adjusted z-score was inactive: 0.

As to GCUCUUCUAGACAUCGAUATT against NUBP1, the median seed-adjusted z-score was inactive: -0.0975.

On to GAAGGAAACAUGACGAUGATT against ZXDC, for which the median seed-adjusted z-score is inactive: -0.0213.

In the case of GAGAUUAUGUCUACGUUUATT against UHRF2, the median seed-adjusted z-score was inactive: -0.0941.

Regarding GGUCGAAUGAUAAGGUGUATT against PTK2, the median seed-adjusted z-score was inactive: -0.0806.

GAUUGUUGCUUGAUAGUGUTT against CCNC: the median seed-adjusted z-score was inactive: -0.606.

Take GAAUAGUACCAAGAACUCATT against PECAM1: the median seed-adjusted z-score was inactive: 0.0717.

For the sequence GGGACUACUUGACCGUCAATT against PPP2R2B, the median seed-adjusted z-score was inactive: -0.252.

On to GAGUGGAAUUGAGAUCUUATT against ACSL5, for which the median seed-adjusted z-score is inactive: 0.109.

Consider CAGUGUGGCUGACAACUUATT against SERTAD1, for which the median seed-adjusted z-score is inactive: 0.376.

Turning to AUACUUUCCCGCAAAAAGATT against INSL4, the median seed-adjusted z-score is inactive: 0.399.

As for GAAGGAUUAUCCCAUCUAATT against CLNS1A, the median seed-adjusted z-score is inactive: 0.232.

Take GGACCAUAAUCAAUGUAGATT against ZNF585A: the median seed-adjusted z-score was inactive: -0.168.

On to GGGACAUUGGUACAGGUUUTT against CYP11B2, for which the median seed-adjusted z-score was inactive: 0.459.

For the sequence CCUGUGUAUGUUGGACUGATT against PITX1, the median seed-adjusted z-score is inactive: 0.

In the case of GUCUUUGACUUACUGAACATT against PPIL2, the median seed-adjusted z-score is inactive: -0.467.

As for CUCUAAGCAUUGAACCAGUTT against RAB3IP, the median seed-adjusted z-score is inactive: -0.191.

For the sequence GCAUGAUGGUAUUGAGCUUTT against MS4A6A, the median seed-adjusted z-score was inactive: 0.174.

For GCCUCUAAGUCUCGAGGAATT against TRPM3, the median seed-adjusted z-score is inactive: -0.633.

With CAAAGACUCCACAUACGUUTT against PCM1, the median seed-adjusted z-score is inactive: -0.00218.

In the case of CCAAGUACAUAUCCUGUAATT against BAG4, the median seed-adjusted z-score was inactive: 0.111.

Regarding GAAUACCUACAGAUGUAAATT against ZNF429, the median seed-adjusted z-score is inactive: 0.479.

Take GCGCUUUUCUGGGUGAACUTT against PRKDC: the median seed-adjusted z-score is inactive: -0.485.

For the sequence AUACAGCUCUAGAUAAGAATT against CAMK1, the median seed-adjusted z-score is inactive: 0.325.

For the sequence GAAGGAUUACUAAAUUAGATT against LSM5, the median seed-adjusted z-score is inactive: -0.661.

With GGCGAUGAUAGACUACUAATT against PCCA, the median seed-adjusted z-score is inactive: 0.

On to GAAAAUGAGAAAACACGAATT against SLC16A6, for which the median seed-adjusted z-score is inactive: 0.195.

For CCGAGAAACUGGACCUCAATT against POU4F1, the median seed-adjusted z-score is inactive: -0.138.

Turning to GGCGGAUAAUGAUGGAGAUTT against LOC4951, the median seed-adjusted z-score was inactive: 0.0691.

As to CUUCAGUUCGAAUACAUUUTT against RFC5, the median seed-adjusted z-score is inactive: -0.644.

GGACACUUGGAUAUGAUCATT against AQP3: the median seed-adjusted z-score is inactive: -0.0863.

As to GGAUCGUGCUAUCUAAACATT against TTLL5, the median seed-adjusted z-score is inactive: 0.

On to AUUUAUUUGUUGAGGUUAUTT against PIM3, for which the median seed-adjusted z-score was active: -1.01.

Take GGAUAACCGUAUUGCCCAATT against AQP7: the median seed-adjusted z-score was inactive: 0.0827.

Consider CAGAUGAAGCUGUAGCGUATT against HSPA5, for which the median seed-adjusted z-score is inactive: 0.19.

Turning to GCUCGUAAGUUGGUGAUCATT against TPM3, the median seed-adjusted z-score is inactive: 0.111.

In the case of GGAAGUACAUGAACGCAGUTT against EFTUD1, the median seed-adjusted z-score was active: -1.39.

Turning to CCUGUUUGCUAACAAGUUUTT against GCNT2, the median seed-adjusted z-score was inactive: -0.0107.

On to GCAGCUCUUUUAGAUCAAATT against WASL, for which the median seed-adjusted z-score is inactive: 0.143.

Turning to CCCUGGAGCUGUUCGACAATT against LRRC4, the median seed-adjusted z-score is inactive: 0.255.

Regarding GGUCGAUAAUAGGAAGUUUTT against SPRED2, the median seed-adjusted z-score is inactive: -0.749.

Turning to AGGUGAACGUGGAUGAAGUTT against HBB, the median seed-adjusted z-score was inactive: -0.151.

As to GAAGACCUCCAGUCUAUAATT against TRAF1, the median seed-adjusted z-score was inactive: 0.518.

In the case of GUGAAAAGCCUAAAUGACATT against ATP5O, the median seed-adjusted z-score is inactive: -0.324.

For the sequence UCUCUGUACUCUCAACCAATT against IL20RB, the median seed-adjusted z-score is inactive: -0.413.

With AGCAAGUAUUGAUUCGUCATT against MYF6, the median seed-adjusted z-score is inactive: -0.0315.

Turning to CCAACAAUUUCAGAGAGUATT against MMP1, the median seed-adjusted z-score is inactive: 0.205.

GCAGAGGAGUUCACCGAUATT against GUCA1A: the median seed-adjusted z-score was inactive: 0.101.

Take UGAUCACGCUGACCACCAUTT against KCNQ2: the median seed-adjusted z-score is inactive: 0.0368.

AGCUUACCCUUCACACUGATT against SLC2A8: the median seed-adjusted z-score is inactive: -0.105.

In the case of GCAUGAACUACAUCACAAATT against CRTAM, the median seed-adjusted z-score is inactive: 0.346.

Regarding CUUCCAUGCCUUUGACCUATT against CDCP2, the median seed-adjusted z-score was inactive: 0.0708.

As for GGAUCAACAGACAACAUCATT against MAP2, the median seed-adjusted z-score was inactive: 0.238.

GGAUAUACUCAGUUAACAATT against XIAP: the median seed-adjusted z-score is inactive: -0.0329.

GUAAGGAUCCUAAACGAGATT against ZCCHC13: the median seed-adjusted z-score is inactive: -0.297.

Consider GGAUUCCUGUUGAGGAGAUTT against PDE6G, for which the median seed-adjusted z-score is inactive: 0.0109.

With GGCUAUAAUGCACGACUUATT against DNAH11, the median seed-adjusted z-score was inactive: 0.104.

For CAACAAUUGAGGCAUCAAATT against PNLIPRP1, the median seed-adjusted z-score was inactive: -0.725.

Regarding GGAAAAAUAUCCAGCAAAATT against UBE2E2, the median seed-adjusted z-score is active: -1.77.

For GGAGUCGUGUUUUGGAAAATT against SHPK, the median seed-adjusted z-score is inactive: 0.

Turning to CGGUAUGAAGGAAACGUGATT against DHX37, the median seed-adjusted z-score is inactive: -0.126.

Regarding CCUGAGUUUUAAAUUCGAATT against COMTD1, the median seed-adjusted z-score is inactive: 0.0487.

In the case of GGUAGUAUAUGUCUGGACATT against UBE2A, the median seed-adjusted z-score is inactive: 0.306.

As for GAAUAUAAGUGGGAGAACATT against CD2BP2, the median seed-adjusted z-score was inactive: -0.455.
